Laboratory results taken from publication PMC9177701, “Taf2 mediates DNA binding of Taf14” (Nature Communications, 2022).
Results are given in words; binding and its absence hold for the method and conditions named. Binding calls can cover weak binding; strength is not graded here.

The chains behind the UniProt entries cited, without tags or fusion partners. Where a name states a change or a piece, a line headed by the entry shows the natural chain unless it says otherwise.
UniProt P35189: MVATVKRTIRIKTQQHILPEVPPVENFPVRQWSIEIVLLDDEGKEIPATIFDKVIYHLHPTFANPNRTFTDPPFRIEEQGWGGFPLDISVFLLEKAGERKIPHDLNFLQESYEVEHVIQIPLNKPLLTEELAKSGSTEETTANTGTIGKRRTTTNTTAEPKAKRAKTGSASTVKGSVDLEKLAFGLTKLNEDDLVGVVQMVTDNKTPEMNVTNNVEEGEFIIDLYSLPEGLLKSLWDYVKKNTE
UniProt P23255: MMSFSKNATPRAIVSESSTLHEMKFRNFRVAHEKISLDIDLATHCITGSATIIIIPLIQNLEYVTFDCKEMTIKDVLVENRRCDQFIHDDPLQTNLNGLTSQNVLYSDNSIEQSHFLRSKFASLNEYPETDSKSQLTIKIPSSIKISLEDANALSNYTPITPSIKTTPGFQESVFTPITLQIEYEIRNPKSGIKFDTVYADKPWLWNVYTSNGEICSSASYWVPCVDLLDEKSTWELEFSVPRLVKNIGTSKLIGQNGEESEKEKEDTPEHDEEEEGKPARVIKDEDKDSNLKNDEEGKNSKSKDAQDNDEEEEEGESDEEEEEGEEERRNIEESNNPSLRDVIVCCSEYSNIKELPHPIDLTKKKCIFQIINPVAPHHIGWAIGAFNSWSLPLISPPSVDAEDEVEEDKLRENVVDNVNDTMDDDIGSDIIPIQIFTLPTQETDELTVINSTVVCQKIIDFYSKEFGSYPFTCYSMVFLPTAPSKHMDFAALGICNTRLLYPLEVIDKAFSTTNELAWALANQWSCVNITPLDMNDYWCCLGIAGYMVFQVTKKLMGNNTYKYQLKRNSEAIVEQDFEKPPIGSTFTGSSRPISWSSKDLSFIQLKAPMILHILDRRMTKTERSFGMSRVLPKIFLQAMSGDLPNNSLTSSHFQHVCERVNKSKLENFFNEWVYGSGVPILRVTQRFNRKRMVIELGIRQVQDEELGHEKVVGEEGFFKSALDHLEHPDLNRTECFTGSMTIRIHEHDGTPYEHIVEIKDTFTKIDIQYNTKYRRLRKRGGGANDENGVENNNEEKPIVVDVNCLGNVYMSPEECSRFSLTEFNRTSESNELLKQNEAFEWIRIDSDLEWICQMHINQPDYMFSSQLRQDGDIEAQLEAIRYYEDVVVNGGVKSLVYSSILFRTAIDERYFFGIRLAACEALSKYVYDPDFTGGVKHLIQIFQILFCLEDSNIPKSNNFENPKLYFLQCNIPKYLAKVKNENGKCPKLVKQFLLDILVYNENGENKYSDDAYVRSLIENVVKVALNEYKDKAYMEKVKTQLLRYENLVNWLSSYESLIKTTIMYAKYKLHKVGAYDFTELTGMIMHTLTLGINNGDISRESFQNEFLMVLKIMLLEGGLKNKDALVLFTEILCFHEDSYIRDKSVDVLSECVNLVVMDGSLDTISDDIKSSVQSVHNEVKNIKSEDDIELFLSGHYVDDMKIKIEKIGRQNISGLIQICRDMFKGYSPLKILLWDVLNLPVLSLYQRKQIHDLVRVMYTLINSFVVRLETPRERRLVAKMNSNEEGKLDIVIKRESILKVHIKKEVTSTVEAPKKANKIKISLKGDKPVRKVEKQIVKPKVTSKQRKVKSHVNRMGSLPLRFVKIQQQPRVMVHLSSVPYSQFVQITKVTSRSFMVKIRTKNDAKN

Biological target: Taf14ET (ET domain of Taf14, aa 168–243) (S. cerevisiae) (UniProt P35189)
Experiment: crystal structure; Taf14ET incubated with the Taf2 peptide at 1:2.5; sitting-drop vapor diffusion at 23 °C, 2.4 M sodium malonate pH 7.0; 1.7 Å; both purified

B1: Taf2CT peptide (aa 1392–1402 of Taf2) (peptide, UniProt P23255 1392-1402, looked up)
peptide: SRSFMVKIRTK
notes: Taf2, subunit of yeast TFIID, C-terminal hxhKh motif-containing tail, aa 1392–1402; also called Taf2 peptide; C-terminal tail of Taf2; source: synthetic peptide (Synpeptide)
B1 was tested, and the binding was “binds”.
